From PubChem BioAssay AID504842 (National Center for Advancing Translational Sciences (NCATS), 2011)
Screen size: about 330,000 compounds; about 100 (0.03%) were called active. Inconclusive means that the source gave no clear call. Such entries were picked first, then a sample of the others. The call rests on the fitted dose curve; in most records, active means well fitted inhibition curve with a large enough effect; inconclusive means small, poorly fitted or top-dose-only effect; inactive means flat fitted curve, though single readings scatter. Potencies beside an inconclusive call are fits to weak or partial responses and may not hold up.

system: Chaperonin Mm-Cpn (Methanococcus maripaludis); assay: Inhibitors of TCP-1 ring complex (TRiC) of Methanococcus maripaludis (MmCpn): qHTS; conditions: purified Mm-Cpn ATPase, ADP Transcreener TR-FRET; further: nearly all actives have a fitted effect of over 80% in size;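 on Potency: enzyme at 25 nM with ATP substrate at 10 µM during the reaction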
In short: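 ATPase turnover read by TR-FRET ADP competition (Eu cryptate antibody/ADP-d2, 665/590 nm): 10uM ATP final, 25nM Mm-CPN final, 30 min 37degC after 10-min compound preincubation, pH 7.4 Tris/KCl/MgCl2/DTT buffer.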
Potency means the concentration at half of the fitted maximal effect.

| SMILES | Potency |
| --- | --- |
| O=C(c1cccc(C(F)(F)F)c1)C1CCCN(Cc2cccn2-c2ccccn2)C1 (stereo not drawn) | inconclusive: 28.2 µM [inhibitor, single point] |
| O=C(O)c1cccc(N2C(=O)/C(=C/c3ccc([N+](=O)[O-])cc3)C=C2c2ccccc2)c1 | inactive |
| CC1=NN(C(N)=S)C(=O)C1N=Nc1c(C)cc(C)cc1C (stereo not drawn) | inactive |
| Cc1[nH]c2ccccc2c1C(=O)C(C)OC(=O)c1ccc(NC(=O)CC#N)cc1 (stereo not drawn) | inconclusive: 100 µM [inhibitor, single point] |
| O=C(NCC(c1ccco1)N1CCc2ccccc21)c1ccccc1Br (stereo not drawn) | inconclusive: 12.6 µM [inhibitor, single point] |
| COc1ccc(CCN2CC(C(=O)NCc3c(C)n[nH]c3C)CCC2=O)cc1 (stereo not drawn) | inconclusive: 63.1 µM [inhibitor, single point] |
| NS(=O)(=O)c1ccc(-c2ccc(C=O)o2)cc1 | inactive |
| COc1ccccc1S(=O)(=O)Cc1ccc(C(=O)NCc2ccc(C)cc2)o1 | inconclusive: 50.1 µM [inhibitor, single point] |
| COc1ccc(OCc2cc(C(=O)N(C)Cc3cc(C)no3)no2)c(Cl)c1 | inconclusive: 11.2 µM [inhibitor, partial curve, poor fit] |
| Oc1ccccc1C1CC(c2cccs2)=NC(c2cccc(Br)c2)N1 (stereo not drawn) | inconclusive: 100 µM [inhibitor, single point] |
| N#C/C(=C\Nc1ccc(F)c(Cl)c1)S(=O)(=O)c1ccccn1 | inactive |
| O=c1c2ccccc2c(/C=N/n2cnnc2)c(O)n1-c1ccccc1F | inactive |
| COc1cccc(C(=O)NC2CC3CCCC(C2)N3CC(=O)Nc2ccc(N(C)C)cc2)c1 (stereo not drawn) | inactive |
| CN(C)c1ccc(CNCCC2CCOC(C)(C)C2)cc1 (stereo not drawn) | inactive |
| CSc1ccc(C#N)cc1NC(=O)c1ccc(Cl)cc1Cl | inconclusive: 100 µM [inhibitor, single point] |
| CN(C)c1ccc(P(=O)(Nc2ccc([N+](=O)[O-])cc2)N2CCOCC2)c(NC(=O)c2cccs2)c1 (stereo not drawn) | inactive |
| N#C/C(=C/c1ccncc1)c1nc2ccccc2s1 | inactive |
| O=C(OCC(F)(F)F)c1cccc(COc2ccc3ccccc3c2)c1 | inactive |
| COc1ccc(S(=O)(=O)N/N=C\c2ccc([N+](=O)[O-])o2)c(OC)c1 | inactive |
| Cc1ccc(C2=CSC3=NCCN23)c(C)c1 | inactive |
| Cc1ccccc1-n1c(SCC(=O)N2CCOCC2)nc(O)c(Cc2ccccc2)c1=O | inactive |
| Cc1cc(N2C(=O)C(O)=C(C(=O)c3ccco3)C2c2cccc(O)c2)no1 (stereo not drawn) | inactive |
| O=S(=O)(NCc1ccccn1)c1ccc2c(c1)OCCO2 | inconclusive: 44.7 µM [inhibitor, single point] |
| COc1cccc(-c2sc3cc(OC)c(OC)cc3c2-c2ccc(OCCN3CCCCC3)cc2)c1 | inconclusive: 224 µM [inhibitor, partial curve, poor fit] |
| Fc1ccc(C(c2nnnn2C2CCCC2)N2CCc3ccccc32)cc1 (stereo not drawn) | inconclusive: 100 µM [inhibitor, single point] |

| SMILES | Potency |
| --- | --- |
| Cc1cccnc1NC(=O)Cn1nc(-c2ccccc2)oc1=S | inconclusive: 25.1 µM [inhibitor, single point] |
| COc1ccc(Oc2ccccc2/C=N/O)cc1 | inactive |
| CC1(C)C(=O)OC(C(=O)c2ccc(C(C)(C)C)cc2)C(C)(C)C1=O (stereo not drawn) | inactive |
| COc1ccccc1-c1sc2ccccc2c1-c1ccc(C(C)=O)cc1 | active: 31.6 µM |
| COc1ccc(CN2C(=O)c3cccnc3C2=O)cc1S(=O)(=O)N1CCCC(C)C1 (stereo not drawn) | inconclusive: 25.1 µM [inhibitor, single point] |
| CC(C)Sc1nnc(-c2c[nH]c3ccccc23)n1C | inactive |
| CCOC(=O)c1[nH]c(C=O)c(C(=O)OCC)c1C | inconclusive: 22.4 µM [inhibitor, single point] |
| COC(=O)[C@H]1C[C@@H]1[C@H](NS(=O)(=O)c1ccc2ccccc2c1)c1ccccc1 | inconclusive: 22.4 µM [inhibitor, single point] |
| COc1cccc2[nH]c(=O)c(-c3ccccc3)cc12 | inconclusive: 200 µM [inhibitor, partial curve, poor fit] |
| Cc1occc1-c1n[nH]c(=S)n1-c1ccccc1 | inactive |
| O=C(CSc1nc2cc(Cl)ccc2s1)c1cc2ccccc2o1 | inconclusive: 447 µM [inhibitor, partial curve, poor fit] |
| O=S1(=O)N=C(N/N=C/c2ccco2)c2ccccc21 | inconclusive: 22.4 µM [inhibitor, single point] |
| CN(C)S(=O)(=O)c1ccc(C(=O)OCc2ccc([N+](=O)[O-])cc2)cc1 | inconclusive: 56.2 µM [inhibitor, single point] |
| Nc1nc(NC(=O)c2ccc(F)cc2)ns1 | inconclusive: 15.8 µM [inhibitor, single point] |
| Cc1cccc(N2CCN(C(=O)c3ccccc3NC(=O)C3=CSCCO3)CC2C)c1 (stereo not drawn) | inactive |
| COc1cccc2oc3ccc(C#Cc4ccccn4)cc3c(=O)c12 | inconclusive: 22.4 µM [inhibitor, single point] |
| N#CC1=C(N)Nc2nc3ccccc3n2C1c1ccc(Cl)cc1 (stereo not drawn) | inconclusive: 20 µM [inhibitor, single point] |
| Cc1cccc(N2CCN(CC(O)COc3ccc(Cl)cc3)CC2)c1 (stereo not drawn) | inactive |
| CCCCC(=O)Nc1ccc2c(c1)nc1n2CCSC1 | inconclusive: 15.8 µM [inhibitor, single point] |
| Cc1cc(C)c(C#N)c(SCc2nc3ccccc3[nH]2)n1 | inconclusive: 3550 µM [inhibitor, partial curve, poor fit] |
| Cc1csc(CNc2ncnc3ccc(-c4ccc5c(ccn5C)c4)cc23)c1 | inconclusive: 70.8 µM [inhibitor, single point] |
| O=C(O)CSc1ncnc2c1oc1ccccc12 | inactive |
| CC(=O)Nc1cccc(NC(=O)c2cccc(-c3ccc(O)cc3)c2)c1 | inactive |
| COC(=O)c1ccccc1NC(=O)Cn1cc(Br)cn1 | inconclusive: 89.1 µM [inhibitor, single point] |
| N#CC1=C(N)C(C#N)(C#N)[C@H](c2cccnc2)[C@H]2CN(C(=O)OCc3ccccc3)CC=C12 | inactive |

| SMILES | Potency |
| --- | --- |
| Cc1ccc(N2CC(O)Cn3c2nc2c3c(=O)[nH]c(=O)n2C)cc1 (stereo not drawn) | inconclusive: 70.8 µM [inhibitor, single point] |
| COc1ccc(NS(=O)(=O)c2cccc(NC(=O)C3=NN(c4ccccc4)C(=O)CC3)c2)cc1 | inconclusive: 100 µM [inhibitor, single point] |
| O=C(Nc1ccccc1)/C(=C/c1ccc([N+](=O)[O-])cc1)NC(=O)c1ccccc1 | inconclusive: 89.1 µM [inhibitor, single point] |
| O=c1cc(O)c2sc3nc(C(F)(F)F)c4c(c3c2[nH]1)CCCCC4 | inconclusive: 14.1 µM [inhibitor, single point] |
| CCOCCCn1c(SCC(=O)NCc2ccco2)nc2c(sc3ccccc32)c1=O | inconclusive: 63.1 µM [inhibitor, single point] |
| COc1ccc(/C=C/C(=O)N2CCN(S(=O)(=O)/C=C/c3ccccc3)CC2)cc1OC | inconclusive: 22.4 µM [inhibitor, single point] |
| COc1cccc(CN2CC(C(=O)N(C)CCc3ccccc3)CCC2=O)c1 (stereo not drawn) | inactive |
| c1ccc(-n2nnnc2Oc2ccc(-n3ccnc3)cc2)cc1 | inconclusive: 89.1 µM [inhibitor, single point] |
| CC(C)(C)N(CC#CCC(O)(c1ccccc1)c1ccccc1)CCO | inactive |
| CCC(C)(C)NC(=O)C(c1cccnc1)N(C(=O)c1csnn1)c1ccc(C)cc1 (stereo not drawn) | inconclusive: 44.7 µM [inhibitor, single point] |
| O=S(=O)(c1cccc(-c2csc(-c3cccnc3)n2)c1)N1CCOCC1 | inconclusive: 282 µM [inhibitor, partial curve, poor fit] |
| NC(=O)c1nn(-c2ccccc2)nc1NC(=O)CN1CCOCC1 | inconclusive: 708 µM [inhibitor, partial curve, poor fit] |
| O=C(Cn1c(CN2CCCCC2)nc2ccccc2c1=O)NC1CCCCC1 | inconclusive: 100 µM [inhibitor, single point] |
| COC(=O)c1cc(S(=O)(=O)NCC2CCN(Cc3ccc(C)cc3)CC2)c[nH]1 | inactive |
| CC(C)CN1C(=O)c2ccc(NC(=O)c3ccccc3F)cc2C1=O | inconclusive: 11.2 µM [inhibitor, single point] |
| Cc1ccnc(NC(=O)c2sc3ccccc3c2Cl)c1 | inconclusive: 100 µM [inhibitor, single point] |
| CCCNc1nc(-c2ccccc2)c(C(=O)OCC)cc1C#N | inactive |
| CCOC(=O)c1c(NC(=O)c2cccnc2)sc(C(C)=O)c1C | inconclusive: 22.4 µM [inhibitor, single point] |
| Cn1c(=S)[nH]c2scc(-c3cccs3)c2c1=O | inconclusive: 63.1 µM [inhibitor, partial curve, poor fit] |
| O=C(CSc1ccc([N+](=O)[O-])cc1)Nc1cccc(S(=O)(=O)Nc2ccccc2F)c1 | inconclusive: 35.5 µM [inhibitor, single point] |
| O=C(/C=C/c1ccccc1)NCCC1=CCCCC1 | inactive |
| O=c1[nH]c2ccccc2n2c(=S)[nH]nc12 | inconclusive: 251 µM [inhibitor, partial curve, poor fit] |
| COC(=O)c1[nH]c2cc(OC)ccc2c1NC(=O)CCN1CCN(c2ccccc2)CC1 | inactive |

Reformatted with bars between the fields: part of the list above.
SMILES | Potency
COc1ccc(CCN2CC(C(=O)NCc3c(C)n[nH]c3C)CCC2=O)cc1 (stereo not drawn) | inconclusive: 63.1 µM [inhibitor, single point]
N#C/C(=C\Nc1ccc(F)c(Cl)c1)S(=O)(=O)c1ccccn1 | inactive
O=c1c2ccccc2c(/C=N/n2cnnc2)c(O)n1-c1ccccc1F | inactive
CN(C)c1ccc(CNCCC2CCOC(C)(C)C2)cc1 (stereo not drawn) | inactive
N#C/C(=C/c1ccncc1)c1nc2ccccc2s1 | inactive
O=C(OCC(F)(F)F)c1cccc(COc2ccc3ccccc3c2)c1 | inactive
CCOC(=O)c1[nH]c(C=O)c(C(=O)OCC)c1C | inconclusive: 22.4 µM [inhibitor, single point]
COc1cccc2[nH]c(=O)c(-c3ccccc3)cc12 | inconclusive: 200 µM [inhibitor, partial curve, poor fit]
O=C(CSc1nc2cc(Cl)ccc2s1)c1cc2ccccc2o1 | inconclusive: 447 µM [inhibitor, partial curve, poor fit]
Cc1cccc(N2CCN(C(=O)c3ccccc3NC(=O)C3=CSCCO3)CC2C)c1 (stereo not drawn) | inactive
Cc1cccc(N2CCN(CC(O)COc3ccc(Cl)cc3)CC2)c1 (stereo not drawn) | inactive
c1ccc(-n2nnnc2Oc2ccc(-n3ccnc3)cc2)cc1 | inconclusive: 89.1 µM [inhibitor, single point]
NC(=O)c1nn(-c2ccccc2)nc1NC(=O)CN1CCOCC1 | inconclusive: 708 µM [inhibitor, partial curve, poor fit]
O=C(Cn1c(CN2CCCCC2)nc2ccccc2c1=O)NC1CCCCC1 | inconclusive: 100 µM [inhibitor, single point]
COC(=O)c1cc(S(=O)(=O)NCC2CCN(Cc3ccc(C)cc3)CC2)c[nH]1 | inactive
CCOC(=O)c1c(NC(=O)c2cccnc2)sc(C(C)=O)c1C | inconclusive: 22.4 µM [inhibitor, single point]
Cn1c(=S)[nH]c2scc(-c3cccs3)c2c1=O | inconclusive: 63.1 µM [inhibitor, partial curve, poor fit]
O=C(CSc1ccc([N+](=O)[O-])cc1)Nc1cccc(S(=O)(=O)Nc2ccccc2F)c1 | inconclusive: 35.5 µM [inhibitor, single point]
